Earlier results, collected in patent US20110270212A1, “PHARMACOKINETIC CONTROL FOR OPTIMIZED INTERFERON DELIVERY” (MEDTRONIC, INC., priority 2007, published 2011).
For at least one compound, name, drawing or mass did not settle the structure.

Columns and labels:
HCV genotype-1 = conditions: 400 mg group, 14-day course, genotype-1 patients
[1] = test system: hepatitis C virus (HCV) genotype 1; conditions: patients with genotype 1 virus, orally active
[2] = test system: genotype 1 chronic hepatitis C virus (HCV) infection; conditions: 24-week regimen: 12 weeks Telaprevir + peg-IFN + RBV, then 12 weeks peg-IFN + RBV; intent-to-treat, 60 of 115

| SMILES | maximum HCV reduction (HCV genotype-1) | plasma HCV RNA [1] | patients who maintained undetectable HCV RNA 12 weeks post-treatment (SVR12) [2] [%] |
| --- | --- | --- | --- |
| CC(C)(C)NC(=O)N[C@H](C(=O)N1C[C@H]2[C@@H]([C@H]1C(=O)NC(CC1CCC1)C(=O)C(N)=O)C2(C)C)C(C)(C)C (stereo partly drawn) [Boceprevir] | more than 2 logs |  |  |
| CCC[C@H](NC(=O)[C@@H]1[C@H]2CCC[C@H]2CN1C(=O)[C@@H](NC(=O)[C@@H](NC(=O)c1cnccn1)C1CCCCC1)C(C)(C)C)C(=O)C(=O)NC1CC1 [Telaprevir] |  | reduce plasma HCV RNA | 52 |
